PubChem BioAssay AID743121, NCATS – 2013

Assay: 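Genes whose silencing strengthens cell killing by camptothecin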 (primary screen)
Cells: MDA-MB-231 cells, a human breast cancer line
Knock-down reagent: single siRNA against human genes, 20 nM siRNA (0.8 pmol per well)
Timing: 120 h (drug added 48 h after transfection, read 72 h later)
Treatment: camptothecin 20 nM (about EC30) for 72 h; vehicle 0.1% DMSO in parallel plates
Read-out: 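CellTiter-Glo ATP signal, scaled to control siRNA as percent viability; sensitisation given as log2 of untreated divided by camptothecin-treated viability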
Scale: log2 vehicle/camptothecin viability: higher = stronger sensitisation to camptothecin; viability with camptothecin: higher = more viable cells
Active means: 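Each gene scored by redundant siRNA activity (RSA) over its individual siRNA ratios; a gene is called active at p < 0.001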
This is a random part of about 26,000 deposited reagents. Of all reagents, 167 (0.63%) were called active. 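Calls are per gene from RSA p-values that are not deposited; an individual active-marked siRNA can sensitise only weakly.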 A number with no mark means an inactive call. Reagents against one gene are numbered here. Further read-outs or replicates are left out here. Reagent sequences are not shown.

Target gene	reagent no.	log2 vehicle/camptothecin viability	viability with camptothecin (% of control)
ASB13	1	-0.378	144
ASB13	2	-0.124	101
ASB13	3	-0.963	73.9
ASB13	4	0.0907	87.6
VEGFA	1	0.134	62.2
VEGFA	2	-0.304	102
VEGFA	3	-0.0172	116
VEGFA	4	-0.324	106
PER3	1	-0.124	94.9
PER3	2	-0.375	94.1
PER3	3	-0.15	54.6
SLC9B2	1	0.59	72.2
SLC9B2	2	0.105	71.3
SLC9B2	3	-0.0152	111
SLC9B2	4	-0.0619	112
BTK	1	-0.197	125
BTK	2	0.342	57.8
BTK	3	0.286	77.8
BTK	4	-0.491	79.8
STK31	1	-0.0586	114
STK31	2	-0.122	69.2
STK31	3	-0.014	72.2
STK31	4	-0.351	52.2
TRPA1	1	-0.109	64.3
TRPA1	2	0.0173	45.1
TRPA1	3	0.24	73.7
TRPA1	4	-0.139	108
TAAR2	1	1.54	8.2
TAAR2	2	0.109	62.5
TAAR2	3	-0.0446	73.5
TAAR2	4	-0.0386	102
RPGR	1	-0.258	68.6
RPGR	2	-0.315	117
RPGR	3	0.0966	94.2
RPGR	4	-0.106	106
NR0B1	1	-0.0254	86.3
NR0B1	2	0.214	87
NR0B1	3	-0.616	31.6
NR0B1	4	-0.0256	104
DHRS2	1	-0.0208	19.5
DHRS2	2	-0.207	68.4
DHRS2	3	-0.148	80.7
DHRS2	4	-0.0319	88.9
CASP2	1	0.261	47.3
CASP2	2	-0.413	85.7
CASP2	3	-0.386	74.1
CASP2	4	-0.506	46.5
MMP9	1	-0.66 (active)	74.6
MMP9	2	1.3 (active)	29.7
MMP9	3	0.953 (active)	35.5
MMP9	4	0.896 (active)	15
FBXO4	1	-0.173	58.3
FBXO4	2	-0.295	92
FBXO4	3	-0.287	117
FBXO4	4	0.0935	39.3
DKK4	1	0.0484	89.3
DKK4	2	-0.18	63.4
DKK4	3	-0.63	25.8
DKK4	4	-0.256	69.3
PRODH	1	-0.121	74.9
IFNAR2	1	-0.125	95.7
IFNAR2	2	-0.0754	88.4
IFNAR2	3	-0.12	89.3
IFNAR2	4	-0.131	89.5
AP3S1	1	0.208	85.2
AP3S1	2	-0.309	86.7
AP3S1	3	0.312	29
STX16	1	-0.518	69.1
STX16	2	0.187	75.5
STX16	3	-0.122	47.3
STX16	4	-0.137	82.6

A portion taken from the entries so far, for reference:
Target gene	reagent no.	log2 vehicle/camptothecin viability	viability with camptothecin (% of control)
ASB13	1	-0.378	144
ASB13	2	-0.124	101
ASB13	3	-0.963	73.9
ASB13	4	0.0907	87.6
VEGFA	1	0.134	62.2
VEGFA	2	-0.304	102
VEGFA	3	-0.0172	116
VEGFA	4	-0.324	106
PER3	1	-0.124	94.9
